The other results are listed elsewhere or left out. The calls rarely recur for the same compound in another form.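 Kinases were expressed as nanoluciferase fusions in K562 cells and luminescence was read every 4 h between 2 and 18 h as percent of control, DMSO set to 100% and a positive control to 0%. A time point counts as decreased when the signal drops significantly (2 sigma). The hit call is the authors' own, does not follow from the count of time points alone, and its rule is not shown.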
Columns and labels:
Test in all cases: kinase-Nluc reporter destabilization hit call (1 = scored as downregulated) (binary); higher = compound decreases kinase abundance
ABL1 = ABL1 (UniProt P00519); settings: 10 µM; K562; 2-18 h
AKT1 = AKT1 (UniProt P31749); settings: K562, 2-18 h
ALK = ALK (UniProt Q9UM73); settings: K562, 2-18 h
ARAF = ARAF (UniProt P10398); settings: K562, 2-18 h
AURKA = AURKA (UniProt O14965); settings: K562, 2-18 h
AURKC = AURKC (UniProt Q9UQB9); settings: K562, 2-18 h
BLK = BLK (UniProt P51451); settings: K562, 2-18 h
BMX = BMX (UniProt P51813); settings: K562, 2-18 h
BRAF = BRAF (UniProt P15056); settings: K562, 2-18 h
BRAF_V600E = settings: K562, 2-18 h
BTK = BTK (UniProt Q06187); settings: K562, 2-18 h
CAMK2A = CAMK2A (UniProt Q9UQM7); settings: K562, 2-18 h
CAMK2G = CAMK2G (UniProt Q13555); settings: K562, 2-18 h
CDK10 = CDK10 (UniProt Q15131); settings: K562, 2-18 h
CDK2 = CDK2 (UniProt P24941); settings: K562, 2-18 h
CDK3 = CDK3 (UniProt Q00526); settings: K562, 2-18 h
CDK4 = CDK4 (UniProt P11802); settings: K562, 2-18 h
CDK5 = CDK5 (UniProt Q00535); settings: K562, 2-18 h
CDK6 = CDK6 (UniProt Q00534); settings: K562, 2-18 h
AURKB = AURKB (UniProt Q96GD4); settings: K562, 2-18 h

Protein sequences, listed by entry. Tags and fused reporters are not part of them. Lines headed by an entry give the natural chain unless they say otherwise; changes in a name come on top.
UniProt P00519, whole entry: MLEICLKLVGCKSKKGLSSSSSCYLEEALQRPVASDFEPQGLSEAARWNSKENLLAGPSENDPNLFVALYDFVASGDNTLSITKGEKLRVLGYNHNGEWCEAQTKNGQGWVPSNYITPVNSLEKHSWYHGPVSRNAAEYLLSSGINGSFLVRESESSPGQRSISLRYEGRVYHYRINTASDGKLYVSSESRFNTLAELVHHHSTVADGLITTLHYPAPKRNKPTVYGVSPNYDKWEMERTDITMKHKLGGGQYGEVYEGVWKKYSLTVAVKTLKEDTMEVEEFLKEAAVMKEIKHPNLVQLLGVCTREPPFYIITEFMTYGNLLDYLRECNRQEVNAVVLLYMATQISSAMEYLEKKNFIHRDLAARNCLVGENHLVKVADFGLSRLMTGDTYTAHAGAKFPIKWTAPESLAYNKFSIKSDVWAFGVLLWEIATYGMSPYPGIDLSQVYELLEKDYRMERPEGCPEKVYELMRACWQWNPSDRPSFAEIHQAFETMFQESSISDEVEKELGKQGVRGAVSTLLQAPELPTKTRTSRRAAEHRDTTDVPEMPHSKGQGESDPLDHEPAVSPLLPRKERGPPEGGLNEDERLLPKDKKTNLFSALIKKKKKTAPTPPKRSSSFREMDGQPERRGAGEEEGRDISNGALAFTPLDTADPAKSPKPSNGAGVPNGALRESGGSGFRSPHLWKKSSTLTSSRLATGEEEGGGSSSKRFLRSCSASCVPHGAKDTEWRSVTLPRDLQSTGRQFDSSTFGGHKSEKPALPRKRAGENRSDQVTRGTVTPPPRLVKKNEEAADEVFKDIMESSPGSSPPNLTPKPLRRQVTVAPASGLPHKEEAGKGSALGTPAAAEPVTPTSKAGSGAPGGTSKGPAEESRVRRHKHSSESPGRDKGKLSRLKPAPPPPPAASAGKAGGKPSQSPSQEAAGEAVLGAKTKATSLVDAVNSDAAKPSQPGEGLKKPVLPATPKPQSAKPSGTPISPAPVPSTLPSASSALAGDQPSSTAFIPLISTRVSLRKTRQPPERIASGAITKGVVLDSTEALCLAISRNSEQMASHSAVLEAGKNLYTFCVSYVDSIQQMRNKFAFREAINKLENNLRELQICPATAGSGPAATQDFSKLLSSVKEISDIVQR
UniProt P31749: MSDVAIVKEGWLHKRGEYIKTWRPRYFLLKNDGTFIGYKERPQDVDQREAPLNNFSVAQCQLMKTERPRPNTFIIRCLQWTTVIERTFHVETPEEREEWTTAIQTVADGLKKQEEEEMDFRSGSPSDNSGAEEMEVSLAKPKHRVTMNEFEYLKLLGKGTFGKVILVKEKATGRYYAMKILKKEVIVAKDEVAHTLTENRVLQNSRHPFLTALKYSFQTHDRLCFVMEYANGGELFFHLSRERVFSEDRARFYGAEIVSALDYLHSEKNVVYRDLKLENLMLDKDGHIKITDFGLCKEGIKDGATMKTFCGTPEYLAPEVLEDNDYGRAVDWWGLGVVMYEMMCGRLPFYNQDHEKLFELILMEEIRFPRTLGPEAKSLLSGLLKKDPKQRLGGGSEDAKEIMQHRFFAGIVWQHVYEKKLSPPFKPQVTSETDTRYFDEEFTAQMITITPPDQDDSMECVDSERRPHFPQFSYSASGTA
UniProt O14965: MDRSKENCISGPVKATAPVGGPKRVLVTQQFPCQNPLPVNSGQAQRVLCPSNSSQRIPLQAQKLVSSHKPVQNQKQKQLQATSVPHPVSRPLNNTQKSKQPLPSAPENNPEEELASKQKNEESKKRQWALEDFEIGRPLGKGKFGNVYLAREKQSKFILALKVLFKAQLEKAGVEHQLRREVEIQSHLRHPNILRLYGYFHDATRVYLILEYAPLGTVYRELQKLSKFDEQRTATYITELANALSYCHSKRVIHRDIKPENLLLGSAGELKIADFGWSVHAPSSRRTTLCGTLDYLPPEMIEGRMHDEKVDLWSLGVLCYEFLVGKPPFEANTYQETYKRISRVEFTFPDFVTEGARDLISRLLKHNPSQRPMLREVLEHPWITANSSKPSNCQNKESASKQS
UniProt Q9UQB9: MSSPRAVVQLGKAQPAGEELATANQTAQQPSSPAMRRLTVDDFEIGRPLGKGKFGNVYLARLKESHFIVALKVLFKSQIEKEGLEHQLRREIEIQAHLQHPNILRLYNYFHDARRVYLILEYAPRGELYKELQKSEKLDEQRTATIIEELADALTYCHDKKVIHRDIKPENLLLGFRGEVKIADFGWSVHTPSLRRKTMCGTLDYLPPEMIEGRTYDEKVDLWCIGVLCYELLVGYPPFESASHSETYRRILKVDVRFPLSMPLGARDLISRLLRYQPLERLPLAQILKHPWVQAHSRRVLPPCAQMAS
UniProt P51451: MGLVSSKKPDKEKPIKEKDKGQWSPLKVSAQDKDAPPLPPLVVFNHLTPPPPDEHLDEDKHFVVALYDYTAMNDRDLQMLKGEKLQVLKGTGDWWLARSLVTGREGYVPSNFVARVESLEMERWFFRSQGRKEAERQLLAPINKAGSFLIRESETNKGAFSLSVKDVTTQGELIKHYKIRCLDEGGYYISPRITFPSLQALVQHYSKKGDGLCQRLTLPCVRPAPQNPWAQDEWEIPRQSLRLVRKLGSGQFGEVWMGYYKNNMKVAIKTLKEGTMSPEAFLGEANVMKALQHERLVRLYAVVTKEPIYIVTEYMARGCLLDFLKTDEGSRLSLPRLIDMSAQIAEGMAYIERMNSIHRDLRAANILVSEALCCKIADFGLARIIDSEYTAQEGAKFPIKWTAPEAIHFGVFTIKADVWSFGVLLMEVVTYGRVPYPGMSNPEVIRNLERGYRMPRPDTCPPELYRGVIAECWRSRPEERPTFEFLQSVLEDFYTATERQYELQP
UniProt P51813: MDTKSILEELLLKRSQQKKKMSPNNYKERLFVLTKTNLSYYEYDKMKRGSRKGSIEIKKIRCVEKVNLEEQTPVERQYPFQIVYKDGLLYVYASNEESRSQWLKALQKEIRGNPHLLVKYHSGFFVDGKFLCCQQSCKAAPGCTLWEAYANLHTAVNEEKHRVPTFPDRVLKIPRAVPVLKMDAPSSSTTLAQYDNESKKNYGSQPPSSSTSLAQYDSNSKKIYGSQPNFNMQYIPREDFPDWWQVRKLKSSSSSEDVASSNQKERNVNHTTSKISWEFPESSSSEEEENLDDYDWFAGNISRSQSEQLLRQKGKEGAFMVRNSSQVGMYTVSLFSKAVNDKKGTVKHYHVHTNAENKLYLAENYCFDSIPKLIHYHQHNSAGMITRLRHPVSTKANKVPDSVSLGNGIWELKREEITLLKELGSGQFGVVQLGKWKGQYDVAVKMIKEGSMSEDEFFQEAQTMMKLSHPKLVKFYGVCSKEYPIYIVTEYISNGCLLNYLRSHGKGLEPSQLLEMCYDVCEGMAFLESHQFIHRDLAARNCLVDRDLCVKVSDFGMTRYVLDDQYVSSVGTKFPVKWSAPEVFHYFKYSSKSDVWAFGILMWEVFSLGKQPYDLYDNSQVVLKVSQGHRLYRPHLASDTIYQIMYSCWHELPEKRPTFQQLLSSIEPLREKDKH
UniProt Q06187: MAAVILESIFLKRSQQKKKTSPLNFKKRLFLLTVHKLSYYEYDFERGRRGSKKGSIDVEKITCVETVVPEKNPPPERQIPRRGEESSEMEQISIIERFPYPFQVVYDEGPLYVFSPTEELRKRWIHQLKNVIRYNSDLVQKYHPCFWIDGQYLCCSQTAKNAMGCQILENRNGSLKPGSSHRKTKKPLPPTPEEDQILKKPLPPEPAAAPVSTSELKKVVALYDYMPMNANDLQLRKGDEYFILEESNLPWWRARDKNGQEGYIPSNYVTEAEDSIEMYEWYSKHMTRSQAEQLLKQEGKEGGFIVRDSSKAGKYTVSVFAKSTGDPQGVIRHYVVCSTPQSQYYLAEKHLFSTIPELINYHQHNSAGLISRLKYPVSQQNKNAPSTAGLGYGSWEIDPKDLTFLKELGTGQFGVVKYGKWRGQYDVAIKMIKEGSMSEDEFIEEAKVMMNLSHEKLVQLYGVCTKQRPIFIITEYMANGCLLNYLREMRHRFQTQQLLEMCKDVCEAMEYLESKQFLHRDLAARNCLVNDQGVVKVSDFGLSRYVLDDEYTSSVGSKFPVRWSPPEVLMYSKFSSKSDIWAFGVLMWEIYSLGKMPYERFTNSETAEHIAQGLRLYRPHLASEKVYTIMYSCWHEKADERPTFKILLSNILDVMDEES
UniProt Q9UQM7, whole entry: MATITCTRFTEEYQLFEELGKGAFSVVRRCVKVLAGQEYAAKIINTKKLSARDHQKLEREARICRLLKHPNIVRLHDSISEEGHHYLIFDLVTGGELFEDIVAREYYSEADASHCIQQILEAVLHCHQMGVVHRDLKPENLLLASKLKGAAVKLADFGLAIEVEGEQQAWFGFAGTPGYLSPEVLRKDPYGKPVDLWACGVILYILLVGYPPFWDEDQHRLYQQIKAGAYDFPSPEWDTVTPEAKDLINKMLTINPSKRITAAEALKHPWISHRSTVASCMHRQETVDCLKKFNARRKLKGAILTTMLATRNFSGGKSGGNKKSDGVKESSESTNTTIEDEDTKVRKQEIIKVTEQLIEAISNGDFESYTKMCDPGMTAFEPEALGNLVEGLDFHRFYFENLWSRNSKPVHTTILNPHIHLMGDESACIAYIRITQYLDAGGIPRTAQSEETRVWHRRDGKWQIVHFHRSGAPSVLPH
UniProt Q13555: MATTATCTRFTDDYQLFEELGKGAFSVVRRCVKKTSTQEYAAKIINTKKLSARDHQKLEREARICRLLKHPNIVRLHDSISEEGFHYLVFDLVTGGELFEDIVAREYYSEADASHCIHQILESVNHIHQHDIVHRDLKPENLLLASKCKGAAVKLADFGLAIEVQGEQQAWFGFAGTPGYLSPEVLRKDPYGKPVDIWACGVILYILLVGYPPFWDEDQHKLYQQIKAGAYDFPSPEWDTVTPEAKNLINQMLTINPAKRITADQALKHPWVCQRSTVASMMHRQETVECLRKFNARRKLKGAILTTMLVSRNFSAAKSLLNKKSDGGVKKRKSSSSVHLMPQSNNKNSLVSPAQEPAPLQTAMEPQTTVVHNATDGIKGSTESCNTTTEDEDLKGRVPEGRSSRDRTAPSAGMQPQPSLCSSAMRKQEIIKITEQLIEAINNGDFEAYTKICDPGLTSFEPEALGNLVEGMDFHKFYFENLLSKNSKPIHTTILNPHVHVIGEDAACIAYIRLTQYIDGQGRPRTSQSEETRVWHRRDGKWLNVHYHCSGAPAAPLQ
UniProt Q15131: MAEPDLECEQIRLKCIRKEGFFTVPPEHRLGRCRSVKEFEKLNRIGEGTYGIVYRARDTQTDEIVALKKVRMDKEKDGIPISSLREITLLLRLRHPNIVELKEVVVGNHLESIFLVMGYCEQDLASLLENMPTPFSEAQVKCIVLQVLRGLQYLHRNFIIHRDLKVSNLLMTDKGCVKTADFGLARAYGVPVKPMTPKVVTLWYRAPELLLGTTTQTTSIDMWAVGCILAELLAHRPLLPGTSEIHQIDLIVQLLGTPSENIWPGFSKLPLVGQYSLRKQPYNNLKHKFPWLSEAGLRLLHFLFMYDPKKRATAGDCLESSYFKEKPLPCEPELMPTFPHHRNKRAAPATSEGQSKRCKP
UniProt Q00526: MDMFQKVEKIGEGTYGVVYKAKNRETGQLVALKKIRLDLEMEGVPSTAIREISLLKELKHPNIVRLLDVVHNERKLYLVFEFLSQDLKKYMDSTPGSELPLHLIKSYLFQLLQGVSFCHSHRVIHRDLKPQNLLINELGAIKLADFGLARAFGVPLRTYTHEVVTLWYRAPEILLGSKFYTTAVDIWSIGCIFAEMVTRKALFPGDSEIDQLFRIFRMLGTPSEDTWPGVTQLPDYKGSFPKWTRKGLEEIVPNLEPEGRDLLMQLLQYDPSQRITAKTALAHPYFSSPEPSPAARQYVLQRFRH
UniProt P11802: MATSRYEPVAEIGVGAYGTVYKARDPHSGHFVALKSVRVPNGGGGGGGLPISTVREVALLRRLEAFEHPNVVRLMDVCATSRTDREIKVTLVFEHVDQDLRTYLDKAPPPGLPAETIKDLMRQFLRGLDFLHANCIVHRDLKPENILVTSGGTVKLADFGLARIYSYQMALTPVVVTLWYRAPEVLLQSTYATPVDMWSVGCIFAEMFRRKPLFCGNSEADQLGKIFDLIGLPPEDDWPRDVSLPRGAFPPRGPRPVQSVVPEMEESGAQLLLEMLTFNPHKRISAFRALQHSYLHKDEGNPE
UniProt Q00534, whole entry: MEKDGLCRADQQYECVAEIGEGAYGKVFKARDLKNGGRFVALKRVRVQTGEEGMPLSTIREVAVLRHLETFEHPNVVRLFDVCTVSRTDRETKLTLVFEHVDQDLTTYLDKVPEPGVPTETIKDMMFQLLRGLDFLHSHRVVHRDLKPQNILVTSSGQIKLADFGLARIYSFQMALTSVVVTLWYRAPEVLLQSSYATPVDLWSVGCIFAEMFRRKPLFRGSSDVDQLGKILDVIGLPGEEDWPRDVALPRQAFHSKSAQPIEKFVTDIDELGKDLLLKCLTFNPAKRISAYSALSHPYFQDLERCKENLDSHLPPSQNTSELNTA

Measured: kinase-Nluc reporter destabilization hit call

Fc1ccc(-c2nc(-c3ccc4ccccc4c3F)[nH]c2-c2ccncc2)cc1
active: BRAF_V600E; 10 µM 1 | CDK10; 10 µM 1
inactive: ABL1 = 0 | AKT1; 10 µM 0 | ALK; 10 µM 0 | ARAF; 10 µM 0 | AURKA; 10 µM 0 | AURKC; 10 µM 0 | BLK; 10 µM 0 | BMX; 10 µM 0 | BRAF; 10 µM 0 | BTK; 10 µM 0 | CAMK2A; 10 µM 0 | CAMK2G; 10 µM 0 | CDK2; 10 µM 0 | CDK3; 10 µM 0 | CDK4; 10 µM 0 | CDK5; 10 µM 0 | CDK6; 10 µM 0

COc1ccc(-c2c[nH]c3nccc(-c4ccsc4)c23)c(OC)c1
inactive: AKT1; 10 µM 0 | ALK; 10 µM 0 | ARAF; 10 µM 0 | AURKA; 10 µM 0 | AURKB; 10 µM 0 | AURKC; 10 µM 0 | BLK; 10 µM 0 | BMX; 10 µM 0 | BRAF; 10 µM 0 | BRAF_V600E; 10 µM 0 | BTK; 10 µM 0 | CAMK2A; 10 µM 0 | CAMK2G; 10 µM 0 | CDK10; 10 µM 0 | CDK2; 10 µM 0 | CDK3; 10 µM 0 | CDK4; 10 µM 0 | CDK5; 10 µM 0 | CDK6; 10 µM 0

CCCCCCCCCCCCc1ccc(S(=O)(=O)Nc2nncs2)cc1
inactive: ABL1 = 0 | ALK; 10 µM 0 | ARAF; 10 µM 0 | AURKB; 10 µM 0 | AURKC; 10 µM 0 | BLK; 10 µM 0 | BMX; 10 µM 0 | BRAF; 10 µM 0 | BRAF_V600E; 10 µM 0 | BTK; 10 µM 0 | CAMK2A; 10 µM 0 | CAMK2G; 10 µM 0 | CDK10; 10 µM 0 | CDK2; 10 µM 0 | CDK3; 10 µM 0 | CDK4; 10 µM 0 | CDK5; 10 µM 0 | CDK6; 10 µM 0

Reprinted from the entries so far, 2 compounds:
Fc1ccc(-c2nc(-c3ccc4ccccc4c3F)[nH]c2-c2ccncc2)cc1
active: BRAF_V600E; 10 µM 1 | CDK10; 10 µM 1
inactive: ABL1 = 0 | AKT1; 10 µM 0 | ALK; 10 µM 0 | ARAF; 10 µM 0 | AURKA; 10 µM 0 | AURKC; 10 µM 0 | BLK; 10 µM 0 | BMX; 10 µM 0 | BRAF; 10 µM 0 | BTK; 10 µM 0 | CAMK2A; 10 µM 0 | CAMK2G; 10 µM 0 | CDK2; 10 µM 0 | CDK3; 10 µM 0 | CDK4; 10 µM 0 | CDK5; 10 µM 0 | CDK6; 10 µM 0

COc1ccc(-c2c[nH]c3nccc(-c4ccsc4)c23)c(OC)c1
inactive: AKT1; 10 µM 0 | ALK; 10 µM 0 | ARAF; 10 µM 0 | AURKA; 10 µM 0 | AURKB; 10 µM 0 | AURKC; 10 µM 0 | BLK; 10 µM 0 | BMX; 10 µM 0 | BRAF; 10 µM 0 | BRAF_V600E; 10 µM 0 | BTK; 10 µM 0 | CAMK2A; 10 µM 0 | CAMK2G; 10 µM 0 | CDK10; 10 µM 0 | CDK2; 10 µM 0 | CDK3; 10 µM 0 | CDK4; 10 µM 0 | CDK5; 10 µM 0 | CDK6; 10 µM 0

Next part.

CC(C)(C)n1nc(-c2ccc(Cl)cc2)c2c(N)ncnc21
inactive: AKT1; 10 µM 0 | ALK; 10 µM 0 | ARAF; 10 µM 0 | AURKA; 10 µM 0 | AURKB; 10 µM 0 | AURKC; 10 µM 0 | BLK; 10 µM 0 | BMX; 10 µM 0 | BRAF; 10 µM 0 | BRAF_V600E; 10 µM 0 | BTK; 10 µM 0 | CAMK2A; 10 µM 0 | CAMK2G; 10 µM 0 | CDK10; 10 µM 0 | CDK2; 10 µM 0 | CDK3; 10 µM 0 | CDK4; 10 µM 0 | CDK5; 10 µM 0 | CDK6; 10 µM 0

Nc1ncnc2n[nH]c(-c3ccc(Oc4ccccc4)cc3)c12 [Ibrutinib deacryloylpiperidine]
inactive: AKT1; 10 µM 0 | ALK; 10 µM 0 | ARAF; 10 µM 0 | AURKA; 10 µM 0 | AURKB; 10 µM 0 | AURKC; 10 µM 0 | BLK; 10 µM 0 | BMX; 10 µM 0 | BRAF; 10 µM 0 | BRAF_V600E; 10 µM 0 | BTK; 10 µM 0 | CAMK2A; 10 µM 0 | CAMK2G; 10 µM 0 | CDK10; 10 µM 0 | CDK2; 10 µM 0 | CDK3; 10 µM 0 | CDK4; 10 µM 0 | CDK5; 10 µM 0 | CDK6; 10 µM 0

Cc1cc2c(F)c(Oc3ncnn4cc(OC[C@@H](C)O)c(C)c34)ccc2[nH]1 [Brivanib]
inactive: AKT1; 10 µM 0 | ALK; 10 µM 0 | ARAF; 10 µM 0 | AURKA; 10 µM 0 | AURKB; 10 µM 0 | AURKC; 10 µM 0 | BLK; 10 µM 0 | BMX; 10 µM 0 | BRAF; 10 µM 0 | BRAF_V600E; 10 µM 0 | BTK; 10 µM 0 | CAMK2A; 10 µM 0 | CAMK2G; 10 µM 0 | CDK10; 10 µM 0 | CDK2; 10 µM 0 | CDK3; 10 µM 0 | CDK4; 10 µM 0 | CDK5; 10 µM 0 | CDK6; 10 µM 0

Nc1ncccc1-c1nc2ccc(-c3ccccc3)nc2n1-c1ccc(C2(N)CCC2)cc1 [Miransertib]
inactive: ABL1 = 0 | ALK; 10 µM 0 | ARAF; 10 µM 0 | AURKA; 10 µM 0 | AURKB; 10 µM 0 | AURKC; 10 µM 0 | BLK; 10 µM 0 | BMX; 10 µM 0 | BRAF; 10 µM 0 | BTK; 10 µM 0 | CAMK2A; 10 µM 0 | CAMK2G; 10 µM 0 | CDK10; 10 µM 0 | CDK2; 10 µM 0 | CDK3; 10 µM 0 | CDK4; 10 µM 0 | CDK5; 10 µM 0 | CDK6; 10 µM 0

O=C(NCCCNc1nc(Nc2cccc(CN3CCOCC3)c2)ncc1C1CC1)C1CCC1
inactive: AKT1; 10 µM 0 | ALK; 10 µM 0 | ARAF; 10 µM 0 | AURKA; 10 µM 0 | AURKB; 10 µM 0 | AURKC; 10 µM 0 | BLK; 10 µM 0 | BMX; 10 µM 0 | BRAF; 10 µM 0 | BRAF_V600E; 10 µM 0 | BTK; 10 µM 0 | CAMK2A; 10 µM 0 | CAMK2G; 10 µM 0 | CDK10; 10 µM 0 | CDK2; 10 µM 0 | CDK3; 10 µM 0 | CDK4; 10 µM 0 | CDK5; 10 µM 0 | CDK6; 10 µM 0

O=c1ncn2nc(Sc3ccc(F)cc3F)ccc2c1-c1c(Cl)cccc1Cl [Neflamapimod]
inactive: AKT1; 10 µM 0 | ALK; 10 µM 0 | ARAF; 10 µM 0 | AURKA; 10 µM 0 | AURKB; 10 µM 0 | AURKC; 10 µM 0 | BLK; 10 µM 0 | BMX; 10 µM 0 | BRAF; 10 µM 0 | BRAF_V600E; 10 µM 0 | BTK; 10 µM 0 | CAMK2A; 10 µM 0 | CAMK2G; 10 µM 0 | CDK10; 10 µM 0 | CDK2; 10 µM 0 | CDK3; 10 µM 0 | CDK4; 10 µM 0 | CDK5; 10 µM 0 | CDK6; 10 µM 0

Cc1cc(Nc2cc(N3CCN(C)CC3)nc(/C=C/c3ccccc3)n2)n[nH]1 [ENMD-2076 (Tartrate)]
inactive: AKT1; 2.5 µM 0 | ALK; 2.5 µM 0 | ARAF; 2.5 µM 0 | AURKA; 2.5 µM 0 | AURKB; 2.5 µM 0 | AURKC; 2.5 µM 0 | BLK; 2.5 µM 0 | BMX; 2.5 µM 0 | BRAF; 2.5 µM 0 | BRAF_V600E; 2.5 µM 0 | BTK; 2.5 µM 0 | CAMK2A; 2.5 µM 0 | CAMK2G; 2.5 µM 0 | CDK10; 2.5 µM 0 | CDK2; 2.5 µM 0 | CDK3; 2.5 µM 0 | CDK4; 2.5 µM 0 | CDK5; 2.5 µM 0 | CDK6; 2.5 µM 0

Reference: the supplement of paper PMC12823440, “Inhibitors supercharge kinase turnover through native proteolytic circuits” (Nature, 2025)
